Assay results: patent publication US10472352B2, “Rac inhibitors” (Geneyus LLC, priority 2017, dated 2019)
Structures were worked out from names or drawings and are uncertain.

Key:
[1] = test system: MCF-7 human breast cancer cell line; test: Cell Viability Assay (MCF7), PrestoBlue; details: read-out: MCF7 IC50, MCF-7 cells, three days after drug treatment
[2] = target: His-Rac1 / GST-PBD (PAK Binding Domain) (Homo sapiens, UniProt P63000); test: Rac Activation AlphaScreen Assay (Rac1 AS); details: 500 nM GTPγS, 37° C., 1 hour, 'positive' = signal generated was higher than the positive control; for IC50: read-out: Rac1 AS IC50
[3] = target: Rac1 protein (Homo sapiens, UniProt P63000); test: Fluorescence Polarization Assay (Rac1 FP); details: read-out: Rac1 FP IC50; 125 nM his-tagged Rac1, 12.5 nM Bodipy-TR GTPγS, 30 minutes at 37° C.

| Rac1 AS IC50(uM) [2] | Compound | IC50 [1] [µM] | IC50 [3] [µM] | IC50 [2] [µM] |
| --- | --- | --- | --- | --- |
| positive | Clc1ccc2c(SCCCCCCn3cc(CN4CCOCC4)nn3)ccnc2c1 | 9.2 | 2.57 | – |
| – | CC(=O)N1CCC(Cc2cn(CCCCCCSc3ccnc4cc(C(F)(F)F)ccc34)nn2)CC1 | 19.5 | 1.27 | 23.1 |
| – | COc1ccc(N(C)Cc2cn(CCCCCCSc3ccnc4cc(C(F)(F)F)ccc34)cn2)cc1 | 6.7 | 0.36 | 6.5 |
| – | O=C(C1CCOCC1)N1CCN(Cc2cn(CCCCCCSc3ccnc4cc(C(F)(F)F)ccc34)nn2)CC1 | 37.8 | 2.02 | 28.2 |
